Measurements: PubChem BioAssay AID270 (DTP/NCI, 2004)
The list shows only some results of the screen, not a fair sample: it is rich in T/C values a quarter to a half above the control, in often repeated tests (any T/C) and in doses without a T/C. Further doses and runs are listed elsewhere. T/C gives the treated animals as a percentage of the vehicle group. Schedules are NCI's codes, read here as Q, the interval in days (D) or hours (H), X, the number of doses. Some T/C values carry the count of animals alive at the toxicity check (mostly the fifth day); where none is given, no animal had died by that day. Some entries give survivors of the animals treated and no T/C: the source files T/C as zero there, which appears to mark a toxic dose or a test without result, not a measured value. Some doses without a T/C left all or most animals alive at the check, yet need not have been tolerated: survival well below the control is almost never listed, so the zero probably covers shortened survival too. Survivors were counted at the toxicity check, usually on the fifth day, unless a day is given; later deaths do not show. For survival time, this PubChem deposit counts one and a half times the control or more as active, and values a quarter to a half above the control carry no call in these data; other NCI protocols may use other cut-offs. Where a SMILES comes first, the peptide text is derived from it. [ ]: non-standard residue; d: D form. The star is where a group is joined. ξ: configuration not given here. ξAsp(βξ-Me) = CC(C(=O)O)C(N)C(=O)O; X4 = CC(N*)C1NC(=O)C2CCCCN2C1=O; ξAbu(3ξ-NH2) = CC(N)C(N)C(=O)O; X3 = CCC(C)CCC/C=C/CC(=O)*

System: BDF1 mice, s.c. Lewis lung carcinoma, T/C %
Test: NCI In Vivo Anticancer Drug Screen. Data for tumor model Lewis Lung Carcinoma (subcutaneous) in B6D2F1 (BDF1) mice
How it was run: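 The value reflects a ratio in which the treated cohort's survival time or tumour size is compared against mice receiving only vehicle.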

[1] = T/C endpoint: mean tumor weight, dose: 400.0 mg/kg/injection, schedule: Q01DX011 (ip), vehicle: carboxymethylcellulose (CMC), higher T/C = larger tumour
[2] = T/C endpoint: mean tumor weight, dose: 150.0 mg/kg/injection, schedule: Q01DX011 (ip), vehicle: saline, higher T/C = larger tumour

With `Cc1nnc(N)s1` the survivor count (T/C endpoint: mean tumor weight, dose: 450.0 mg/kg/injection, schedule: Q01DX011 (ip), vehicle: other, higher T/C = larger tumour) was 0 of 6.

With `O=C1c2c(Cl)c(Cl)c(Cl)c(Cl)c2C(=O)N1c1nccs1` the T/C (T/C endpoint: mean tumor weight, dose: 12.5 mg/kg/injection, schedule: Q01DX011 (ip), vehicle: carboxymethylcellulose (CMC), evaluated on day 12, higher T/C = larger tumour) was 149 % of control, the survivor count (T/C endpoint: mean tumor weight, dose: 50.0 mg/kg/injection, schedule: Q01DX011 (ip), vehicle: carboxymethylcellulose (CMC), higher T/C = larger tumour) was 3 of 6 and the survivor count (T/C endpoint: mean tumor weight, dose: 100.0 mg/kg/injection, schedule: Q01DX011 (ip), vehicle: carboxymethylcellulose (CMC), higher T/C = larger tumour) was 0 of 6. For the same compound, the survivor count (T/C endpoint: mean tumor weight, dose: 200.0 mg/kg/injection, schedule: Q01DX011 (ip), vehicle: carboxymethylcellulose (CMC), higher T/C = larger tumour) was 0 of 6 and the survivor count [1] was 0 of 6.

With `CCC(C)CCC/C=C/CC(=O)NC(CC(=O)O)C(=O)NC(C(=O)NC(CC(=O)O)C(=O)NCC(=O)NC(CC(=O)O)C(=O)NCC(=O)NC(C(=O)NC(C(=O)N1CCCC1C(=O)NC(C)C1NC(=O)C2CCCCN2C1=O)C(C)C)C(C)N)C(C)C(=O)O` (stereo not drawn) (X3-D[ξAsp(βξ-Me)]DGDG[ξAbu(3ξ-NH2)]VP-X4; configuration not given here) the survivor count (T/C endpoint: median survival time, dose: 400.0 mg/kg/injection, schedule: Q01DX009 (ip), vehicle: saline + alcohol, higher T/C = longer survival) was 5 of 10.

For `Clc1cccc(Br)c1`, the survivor count (T/C endpoint: mean tumor weight, dose: 118.0 mg/kg/injection, schedule: Q01DX011 (ip), vehicle: other, higher T/C = larger tumour) was 1 of 6, the survivor count (T/C endpoint: mean tumor weight, dose: 178.0 mg/kg/injection, schedule: Q01DX011 (ip), vehicle: other, higher T/C = larger tumour) was 0 of 6 and the survivor count (T/C endpoint: mean tumor weight, dose: 266.0 mg/kg/injection, schedule: Q01DX011 (ip), vehicle: other, higher T/C = larger tumour) was 1 of 6. The survivor count (T/C endpoint: mean tumor weight, dose: 400.0 mg/kg/injection, schedule: Q01DX011 (ip), vehicle: other, higher T/C = larger tumour) was 0 of 6.

In the case of `CC1CCCCN1CCNc1ccc(CO)c2sc3ccccc3c(=O)c12` (stereo not drawn), the T/C (T/C endpoint: median survival time, dose: 200.0 mg/kg/injection, schedule: Q01DX009 (ip), vehicle: saline with Tween-80, higher T/C = longer survival) is reported as 135 % of control.

For `CCCCCCCCCCCCCCCCCCOC(=O)CCSCCC(=O)OCCCCCCCCCCCCCCCCCC`, the survivor count (T/C endpoint: mean tumor weight, dose: 1000.0 mg/kg/injection, schedule: Q01DX011 (ip), vehicle: other, higher T/C = larger tumour) was 0 of 6.

With `CC1CN1P(=S)(N1CC1C)N1CC1C` (stereo not drawn) the survivor count (T/C endpoint: mean tumor weight, dose: 80.0 mg/kg/injection, schedule: Q01DX011 (ip), vehicle: carboxymethylcellulose (CMC), higher T/C = larger tumour) was 0 of 6, the survivor count (T/C endpoint: mean tumor weight, dose: 120.0 mg/kg/injection, schedule: Q01DX011 (ip), vehicle: carboxymethylcellulose (CMC), higher T/C = larger tumour) was 0 of 6 and the survivor count (T/C endpoint: mean tumor weight, dose: 178.0 mg/kg/injection, schedule: Q01DX011 (ip), vehicle: carboxymethylcellulose (CMC), higher T/C = larger tumour) was 0 of 6. The survivor count (T/C endpoint: mean tumor weight, dose: 267.0 mg/kg/injection, schedule: Q01DX011 (ip), vehicle: carboxymethylcellulose (CMC), higher T/C = larger tumour) was 0 of 6, the survivor count [1] was 0 of 6 and the survivor count (T/C endpoint: mean tumor weight, dose: 600.0 mg/kg/injection, schedule: Q01DX011 (ip), vehicle: carboxymethylcellulose (CMC), higher T/C = larger tumour) was 0 of 6.

For `CNC(C)C(O)c1ccccc1` (stereo not drawn), the T/C (T/C endpoint: mean tumor weight, dose: 100.0 mg/kg/injection, schedule: Q01DX011 (ip), vehicle: saline, evaluated on day 12, higher T/C = larger tumour) was 142 % of control [4 of 6 alive], the survivor count [2] was 3 of 6 and the survivor count (T/C endpoint: mean tumor weight, dose: 225.0 mg/kg/injection, schedule: Q01DX011 (ip), vehicle: saline, higher T/C = larger tumour) was 2 of 6.

`CN[C@H]1CCc2cc(OC)c(OC)c(OC)c2-c2ccc(OC)c(=O)cc21` was tested, and the survivor count (T/C endpoint: mean tumor weight, dose: 11.0 mg/kg/injection, schedule: Q01DX011 (ip), vehicle: saline, higher T/C = larger tumour) was 3 of 6 and the survivor count (T/C endpoint: mean tumor weight, dose: 16.0 mg/kg/injection, schedule: Q01DX011 (ip), vehicle: saline, higher T/C = larger tumour) was 2 of 6.

`NC1=NC(=S)C2N=C(N=Nc3ccc(C(=O)NC(CCC(=O)O)C(=O)O)cc3)N=C2N1` (stereo not drawn) was tested, and the survivor count (T/C endpoint: median survival time, dose: 1.56 mg/kg/injection, schedule: Q01DX009 (ip), vehicle: Klucel (hydroxypropylcellulose) (HPC), higher T/C = longer survival) was 10 of 10, the survivor count (T/C endpoint: median survival time, dose: 3.12 mg/kg/injection, schedule: Q01DX009 (ip), vehicle: Klucel (hydroxypropylcellulose) (HPC), higher T/C = longer survival) was 10 of 10 and the survivor count (T/C endpoint: median survival time, dose: 6.25 mg/kg/injection, schedule: Q01DX009 (ip), vehicle: Klucel (hydroxypropylcellulose) (HPC), higher T/C = longer survival) was 10 of 10. For the same compound, the survivor count (T/C endpoint: median survival time, dose: 12.5 mg/kg/injection, schedule: Q01DX009 (ip), vehicle: Klucel (hydroxypropylcellulose) (HPC), higher T/C = longer survival) was 10 of 10, the survivor count (T/C endpoint: median survival time, dose: 25.0 mg/kg/injection, schedule: Q01DX009 (ip), vehicle: Klucel (hydroxypropylcellulose) (HPC), higher T/C = longer survival) was 10 of 10 and the survivor count (T/C endpoint: median survival time, dose: 50.0 mg/kg/injection, schedule: Q01DX009 (ip), vehicle: Klucel (hydroxypropylcellulose) (HPC), higher T/C = longer survival) was 9 of 10. The survivor count (T/C endpoint: median survival time, dose: 100.0 mg/kg/injection, schedule: Q01DX009 (ip), vehicle: Klucel (hydroxypropylcellulose) (HPC), higher T/C = longer survival) was 5 of 10.

In the case of `C=C(C)C(=O)O[C@H]1[C@H]2[C@H](OC(=O)[C@H]2C)[C@H](O)[C@@H](C)[C@@H]2C=CC(=O)[C@]21C`, the survivor count (T/C endpoint: median survival time, dose: 7.5 mg/kg/injection, schedule: Q01DX009 (ip), vehicle: saline, higher T/C = longer survival) is reported as 10 of 10.

For `N#CCC(=O)O`, the T/C (T/C endpoint: mean tumor weight, dose: 19.0 mg/kg/injection, schedule: Q01DX011 (ip), vehicle: saline, evaluated on day 12, higher T/C = larger tumour) was 129 % of control, the survivor count (T/C endpoint: mean tumor weight, dose: 100.0 mg/kg/injection, schedule: Q01DX011 (ip), vehicle: other, higher T/C = larger tumour) was 0 of 6 and the survivor count (T/C endpoint: mean tumor weight, dose: 150.0 mg/kg/injection, schedule: Q01DX011 (ip), vehicle: other, higher T/C = larger tumour) was 0 of 6. The survivor count (T/C endpoint: mean tumor weight, dose: 225.0 mg/kg/injection, schedule: Q01DX011 (ip), vehicle: other, higher T/C = larger tumour) was 0 of 6.

With `NC(Cc1c[nH]c2ccc(N(CCCl)CCCl)cc12)C(=O)O` (stereo not drawn) the T/C (T/C endpoint: mean tumor weight, dose: 0.25 mg/kg/injection, schedule: Q01DX011 (ip), vehicle: saline, evaluated on day 12, higher T/C = larger tumour) was 129 % of control.

With `O=c1n(CCCl)c(=O)n(CCCl)c(=O)n1CCCl` the T/C (T/C endpoint: mean tumor weight, dose: 200.0 mg/kg/injection, schedule: Q01DX011 (ip), vehicle: other, evaluated on day 12, higher T/C = larger tumour) was 138 % of control and the survivor count (T/C endpoint: mean tumor weight, dose: 800.0 mg/kg/injection, schedule: Q01DX011 (ip), vehicle: other, higher T/C = larger tumour) was 0 of 6.

`COc1cc([C@@H]2c3cc4c(cc3[C@H](O)[C@H]3COC(=O)[C@H]23)OCO4)cc(OC)c1OC` was tested, and the survivor count (T/C endpoint: mean tumor weight, dose: 4.0 mg/kg/injection, schedule: Q01DX011 (ip), vehicle: carboxymethylcellulose (CMC), higher T/C = larger tumour) was 0 of 6.

In the case of `Cc1ccc2c(Nc3ccc(NS(C)(=O)=O)cc3)c3ccccc3nc2c1C`, the T/C (T/C endpoint: median survival time, dose: 20.0 mg/kg/injection, schedule: Q01DX009 (ip), vehicle: other, higher T/C = longer survival) is reported as 131 % of control, the survivor count (T/C endpoint: median survival time, dose: 80.0 mg/kg/injection, schedule: Q01DX009 (ip), vehicle: other, higher T/C = longer survival) is reported as 10 of 10 and the survivor count (T/C endpoint: median survival time, dose: 160.0 mg/kg/injection, schedule: Q01DX009 (ip), vehicle: other, higher T/C = longer survival) is reported as 10 of 10.

`O=C(Nc1ccc(C2=NCCCN2)cc1)c1ccc(C(=O)Nc2ccc(C3=NCCCN3)cc2)cc1` was tested, and the survivor count (T/C endpoint: mean tumor weight, dose: 4.0 mg/kg/injection, schedule: Q01DX011 (ip), vehicle: other, higher T/C = larger tumour) was 2 of 7, the survivor count (T/C endpoint: mean tumor weight, dose: 8.0 mg/kg/injection, schedule: Q01DX011 (ip), vehicle: other, higher T/C = larger tumour) was 0 of 7 and the survivor count (T/C endpoint: mean tumor weight, dose: 16.0 mg/kg/injection, schedule: Q01DX011 (ip), vehicle: other, higher T/C = larger tumour) was 0 of 7. The survivor count (T/C endpoint: mean tumor weight, dose: 32.0 mg/kg/injection, schedule: Q01DX011 (ip), vehicle: other, higher T/C = larger tumour) was 0 of 7.

With `O=C1C=CC2(CCC23C=CC(=O)O3)O1` (stereo not drawn) the T/C (T/C endpoint: mean tumor weight, dose: 20.0 mg/kg/injection, schedule: Q01DX011 (ip), vehicle: saline, evaluated on day 12, higher T/C = larger tumour) was 131 % of control, the survivor count (T/C endpoint: mean tumor weight, dose: 100.0 mg/kg/injection, schedule: Q01DX011 (ip), vehicle: saline, higher T/C = larger tumour) was 0 of 6 and the survivor count [2] was 0 of 6.

In the case of `CC(=O)c1ccc(-c2ccccc2)cc1`, the survivor count (T/C endpoint: mean tumor weight, dose: 148.0 mg/kg/injection, schedule: Q01DX011 (ip), vehicle: other, higher T/C = larger tumour) is reported as 3 of 6, the survivor count (T/C endpoint: mean tumor weight, dose: 500.0 mg/kg/injection, schedule: Q01DX011 (ip), vehicle: other, higher T/C = larger tumour) is reported as 3 of 6 and the T/C (T/C endpoint: mean tumor weight, dose: 1000.0 mg/kg/injection, schedule: Q01DX011 (ip), vehicle: other, evaluated on day 12, higher T/C = larger tumour) is reported as 145 % of control [5 of 6 alive].

`CO[C@H](C(=O)[C@@H](O)[C@@H](C)O)[C@@H]1Cc2cc3cc(OC4CC(OC5CC(O)C(O)C(C)O5)C(O)C(C)O4)c(C)c(O)c3c(O)c2C(=O)[C@H]1OC1CC(OC2CC(OC3CC(C)(O)C(O)C(C)O3)C(O)C(C)O2)C(O)C(C)O1` (stereo partly drawn) was tested, and the survivor count (T/C endpoint: median survival time, dose: 0.13 mg/kg/injection, schedule: Q01DX009 (ip), vehicle: saline, higher T/C = longer survival) was 10 of 10, the survivor count (T/C endpoint: median survival time, dose: 0.5 mg/kg/injection, schedule: Q01DX009 (ip), vehicle: saline, higher T/C = longer survival) was 10 of 10 and the survivor count (T/C endpoint: median survival time, dose: 1.0 mg/kg/injection, schedule: Q01DX009 (ip), vehicle: saline, higher T/C = longer survival) was 5 of 10. The survivor count (T/C endpoint: median survival time, dose: 2.0 mg/kg/injection, schedule: Q01DX009 (ip), vehicle: saline, higher T/C = longer survival) was 0 of 10.

`c1ccc(CSc2ncnc3nc[nH]c23)nc1` was tested, and the survivor count (T/C endpoint: mean tumor weight, dose: 200.0 mg/kg/injection, schedule: Q01DX011 (ip), vehicle: other, higher T/C = larger tumour) was 0 of 6.
